Our source for the TEAD-luciferase reporter activity values is the supplement of paper PMC10735217.

Counter-ions that a name gives are not always drawn. The list shows a part of the results. Repeats in this data set agree poorly, so a single value says little.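 The human kidney-derived cells carry a stably integrated construct of eight TEAD-binding elements driving luciferase, read by luminescence in a drug-repurposing library screen. A compound counts as a hit when its signal is more than five robust Z scores above the plate mean.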

The test system of this assay is HEK293A TEAD-LUC reporter. Kind of assay: TEAD-luciferase reporter activity (YAP activation), robust Z score vs plate; higher = stronger YAP/TEAD activation. Conditions: 24 h. On the technique in general: Reporter assays use an easily measured gene product as a stand-in for the process of interest.

In the case of `CC(=O)N1CCN(c2cc(-c3ccccc3)c(C(F)(F)F)nn2)CC1`, the TEAD-luciferase reporter activity reads like this: (compound concentration: 200 nM) inactive: 0.091; (compound concentration: 2 uM) inactive: -1.32; (compound concentration: 10 uM) inactive: -0.297.

Take `Cc1cc(N=C(Nc2nccs2)NC2CCCCC2)c2ccccc2n1` [timegadine]: the TEAD-luciferase reporter activity (compound concentration: 200 nM) is inactive: -1.36, the TEAD-luciferase reporter activity (compound concentration: 2 uM) is inactive: -1.3 and the TEAD-luciferase reporter activity (compound concentration: 10 uM) is inactive: -0.834.

In the case of `N=C(N)NCCCCCCC(=O)NCC(O)CC(=O)NCCC(=O)O` (stereo not given), the TEAD-luciferase reporter activity is, setting by setting: (compound concentration: 200 nM) inactive: -1.41; (compound concentration: 2 uM) inactive: 2.27; (compound concentration: 10 uM) inactive: 0.0746.

Regarding `CCN(CC)CCS(=O)(=O)[C@@H]1CCN2C(=O)c3coc(n3)CC(=O)C[C@H](O)/C=C(C)/C=C\CNC(=O)/C=C/[C@@H](C)[C@H](C(C)C)OC(=O)[C@@H]12` [Dalfopristin], the TEAD-luciferase reporter activity (compound concentration: 200 nM) is inactive: 0.649, the TEAD-luciferase reporter activity (compound concentration: 2 uM) was inactive: 0.0372 and the TEAD-luciferase reporter activity (compound concentration: 10 uM) was inactive: -1.38.

As for `CC(=O)Oc1c(C)cc(OCC(O)CNC(C)C)c(C)c1C` (stereo not given) [metipranolol], the TEAD-luciferase reporter activity is inactive: -1.43 (compound concentration: 200 nM), inactive: -0.36 (compound concentration: 2 uM) and inactive: -0.246 (compound concentration: 10 uM).

`O=C(/C=C/c1ccc2ccccc2n1)c1ccncc1`: the TEAD-luciferase reporter activity was inactive: -1.38 (compound concentration: 200 nM), inactive: -1.07 (compound concentration: 2 uM) and inactive: 0.0816 (compound concentration: 10 uM).

Take `CC1CC(=O)NN=C1c1ccc2c(c1)OCC(=O)N2` (stereo not given) [Bemoradan]: the TEAD-luciferase reporter activity runs as follows: (compound concentration: 200 nM) inactive: 4.11; (compound concentration: 2 uM) inactive: -1.54; (compound concentration: 10 uM) inactive: -0.0268.

As to `COc1ccc(-c2oc3c(CC=C(C)C)c(O)cc(O)c3c(=O)c2O)cc1` [Icaritin], the TEAD-luciferase reporter activity by setting is: (compound concentration: 200 nM) inactive: -0.948; (compound concentration: 2 uM) inactive: -0.409; (compound concentration: 10 uM) inactive: 1.85.

With `NS(=O)(=O)c1cc2c(cc1Cl)NC(CSCC(F)(F)F)NS2(=O)=O` (stereo not given), the TEAD-luciferase reporter activity is inactive: 2.45 (compound concentration: 200 nM), inactive: -0.906 (compound concentration: 2 uM) and inactive: -0.79 (compound concentration: 10 uM).

For `O=C(NC1CCCCC1)NS(=O)(=O)c1ccc2c(c1)CCC2`, the TEAD-luciferase reporter activity reads like this: (compound concentration: 200 nM) inactive: -0.151; (compound concentration: 2 uM) inactive: -0.0253; (compound concentration: 10 uM) inactive: -0.105.

With `Cc1cc(Nc2cc(N)ncn2)c(=O)n2c1C(=O)NC21CCCCC1` [Tomivosertib], the TEAD-luciferase reporter activity reads like this: (compound concentration: 200 nM) inactive: 0.283; (compound concentration: 10 uM) inactive: -0.708.

In the case of `Cc1cc(Nc2cc(N)ncn2)c(=O)n2c1C(=O)NC21CCCCC1`, the TEAD-luciferase reporter activity (compound concentration: 2 uM) is inactive: -0.00983.

As for `CC(=O)c1cc(C(=O)Nc2cc(Cl)c3c(c2Cl)CNCC3)ccc1OC(C)C`, the TEAD-luciferase reporter activity (compound concentration: 200 nM) is inactive: 4.62, the TEAD-luciferase reporter activity (compound concentration: 2 uM) was inactive: -1.26 and the TEAD-luciferase reporter activity (compound concentration: 10 uM) is inactive: 1.56.

In the case of `CCn1cc(C(=O)O)c(=O)c2cc(F)c(N3CCNCC3)nc21` [enoxacin], the TEAD-luciferase reporter activity (compound concentration: 200 nM) is inactive: 2.35, the TEAD-luciferase reporter activity (compound concentration: 2 uM) is inactive: 0.475 and the TEAD-luciferase reporter activity (compound concentration: 10 uM) is inactive: 1.33.

On to `CC(=O)c1ccc2c(c1)N(CCCN1CCC(CCO)CC1)c1ccccc1S2`, for which the TEAD-luciferase reporter activity runs as follows: (compound concentration: 200 nM) inactive: 0.668; (compound concentration: 2 uM) inactive: -0.544; (compound concentration: 10 uM) inactive: 3.49.

In the case of `CCCCCC(O)c1ccc(N2C(=O)CC[C@@H]2CCCc2ccc(C(=O)O)s2)cc1` (stereo not given in full) [Aganepag], the TEAD-luciferase reporter activity was inactive: -0.305 (compound concentration: 200 nM), inactive: 0.433 (compound concentration: 2 uM) and inactive: 2.88 (compound concentration: 10 uM).

Regarding `O=S(=O)(Nc1cnc(Oc2cc3ccccc3cn2)c(Cl)c1)c1ccc(Cl)cc1Cl`, the TEAD-luciferase reporter activity is inactive: 0.308 (compound concentration: 200 nM), inactive: -1.07 (compound concentration: 2 uM) and inactive: -0.823 (compound concentration: 10 uM).

With `CC(C)[C@H](NC(=O)[C@H](CC(=O)O)NC(=O)[C@H](CCCCN)NC(=O)[C@@H](N)CCCNC(=N)N)C(=O)N[C@@H](Cc1ccc(O)cc1)C(=O)O` [thymopentin], the TEAD-luciferase reporter activity by setting is: (compound concentration: 200 nM) inactive: -0.771; (compound concentration: 2 uM) inactive: 2.06; (compound concentration: 10 uM) inactive: -0.536.

With `NNCCc1ccccc1` [Phenelzine sulfate], the TEAD-luciferase reporter activity is, setting by setting: (compound concentration: 200 nM) inactive: 4.36; (compound concentration: 2 uM) inactive: -0.142; (compound concentration: 10 uM) inactive: 3.87.

Take `Cc1cc(C)c(NC(=O)CN(CC(=O)O)CC(=O)O)c(C)c1Br` [Mebrofenin]: the TEAD-luciferase reporter activity (compound concentration: 200 nM) was inactive: 3.39 and the TEAD-luciferase reporter activity (compound concentration: 10 uM) was inactive: -0.18.

Consider `c1ccc(CN(CCN(Cc2ccccn2)Cc2ccccn2)Cc2ccccn2)nc1`, for which the TEAD-luciferase reporter activity is, setting by setting: (compound concentration: 200 nM) inactive: -0.709; (compound concentration: 2 uM) inactive: 0.781; (compound concentration: 10 uM) inactive: 3.6.

Consider `CN1CCN(c2nc(-c3ccc(C(=O)NC4(C(=O)NCC#N)CCCCC4)cc3)cs2)CC1`, for which the TEAD-luciferase reporter activity runs as follows: (compound concentration: 200 nM) inactive: -1.68; (compound concentration: 2 uM) inactive: -1.45; (compound concentration: 10 uM) inactive: 1.97.

As for `CCCCC1OC(=O)c2ccccc21` (stereo not given) [butylphthalide], the TEAD-luciferase reporter activity (compound concentration: 2 uM) is inactive: 0.0322.

Take `CCCCC1OC(=O)c2ccccc21` (stereo not given) [butylphthalide, CSPC]: the TEAD-luciferase reporter activity by setting is: (compound concentration: 200 nM) inactive: 2.73; (compound concentration: 10 uM) inactive: -1.42.

`CC(C)CC1NC(=O)[C@@H](C(C)C)NC(=O)[C@@H]2CCCN2C(=O)[C@@H](CC(=O)O)NC(=O)[C@@H](Cc2c[nH]c3ccccc23)NC1=O` (stereo not given in full): the TEAD-luciferase reporter activity is inactive: -1.4 (compound concentration: 200 nM), inactive: 0.73 (compound concentration: 2 uM) and inactive: 1.66 (compound concentration: 10 uM).

On to `CC(C)C(=O)N1CCC(n2c(=O)[nH]c3ccccc32)CC1`, for which the TEAD-luciferase reporter activity runs as follows: (compound concentration: 200 nM) inactive: -1.36; (compound concentration: 10 uM) inactive: -0.516.

Regarding `O=C(/C=C/c1ccc(O)cc1)NC[C@@H]1CN(c2ccc(N3CCOCC3)c(F)c2)C(=O)O1`, the TEAD-luciferase reporter activity runs as follows: (compound concentration: 200 nM) inactive: -0.605; (compound concentration: 2 uM) inactive: -0.817; (compound concentration: 10 uM) inactive: -1.

Take `N=C(N)c1ccc(-c2ccccc2[N+](=O)[O-])o1`: the TEAD-luciferase reporter activity (compound concentration: 200 nM) is inactive: 0.773, the TEAD-luciferase reporter activity (compound concentration: 2 uM) is inactive: -1.65 and the TEAD-luciferase reporter activity (compound concentration: 10 uM) is inactive: 0.749.

As to `Cc1nccnc1N1CCCCC1`, the TEAD-luciferase reporter activity runs as follows: (compound concentration: 200 nM) inactive: -1.33; (compound concentration: 2 uM) inactive: -0.475; (compound concentration: 10 uM) active: 5.46.

Regarding `CCN(CC)CCSC(=O)C(c1ccccc1)c1ccccc1`, the TEAD-luciferase reporter activity by setting is: (compound concentration: 200 nM) inactive: -0.86; (compound concentration: 2 uM) inactive: -2.17; (compound concentration: 10 uM) inactive: -1.29.

Regarding `Cc1ccccc1N1CCN(CCc2nnc3n2CCCC3)CC1` [dapiprazole, ophthalmic], the TEAD-luciferase reporter activity by setting is: (compound concentration: 200 nM) inactive: -1.08; (compound concentration: 2 uM) inactive: 1.52; (compound concentration: 10 uM) inactive: -2.22.

As for `NC(=O)OCC(COC(N)=O)c1ccccc1` [felbamate], the TEAD-luciferase reporter activity (compound concentration: 2 uM) was inactive: -0.489.

In the case of `NC(=O)OCC(COC(N)=O)c1ccccc1` [Felbamate], the TEAD-luciferase reporter activity was inactive: -0.785 (compound concentration: 200 nM) and inactive: 0.854 (compound concentration: 10 uM).

Take `C(=N\C12CC3CC(CC(C3)C1)C2)/N1CCC(c2cnc[nH]2)CC1`: the TEAD-luciferase reporter activity (compound concentration: 200 nM) was inactive: 0.373, the TEAD-luciferase reporter activity (compound concentration: 2 uM) was inactive: 0.42 and the TEAD-luciferase reporter activity (compound concentration: 10 uM) is inactive: 0.305.

Consider `Cc1noc(-c2ccc(-c3ccc(CC(=O)O)cc3)cc2)c1NC(=O)O[C@H](C)c1ccccc1Cl`, for which the TEAD-luciferase reporter activity (compound concentration: 200 nM) is inactive: -1.19, the TEAD-luciferase reporter activity (compound concentration: 2 uM) was inactive: -0.449 and the TEAD-luciferase reporter activity (compound concentration: 10 uM) was inactive: -1.66.

Regarding `Cc1cn(Cc2ccccc2)nc1OC(C)(C)C(=O)O`, the TEAD-luciferase reporter activity was inactive: -0.855 (compound concentration: 200 nM), inactive: 0.54 (compound concentration: 2 uM) and inactive: -0.463 (compound concentration: 10 uM).

As to `NCCc1c[nH]c(=S)n1[C@H]1COc2c(F)cc(F)cc2C1` [Etamicastat hydrochloride], the TEAD-luciferase reporter activity was inactive: -0.747 (compound concentration: 200 nM), inactive: 1.06 (compound concentration: 2 uM) and inactive: -0.539 (compound concentration: 10 uM).
